In patent US8188089B2, “Tylophorine analogs as antitumor agents” (The University of North Carolina at Chapel Hill, priority 2006, dated 2012):
At least one structure is not confirmed: it was looked up by name or label, or the drawing left a doubt.

Test system: human A549 lung cancer cell line
Assay: Cell growth inhibition assay (SRB), Example 1
Assay type: cell-based
Conditions: NA = Not Active
Source text: Results and discussion. […] Etoposide (VP-16) was used as the reference compound.
Cell Growth Inhibition Assay. The human A549 lung cancer cell line was used for the cytotoxicity screening of PBT derivatives using the cell-based sulforhodamine B (SRB) microtitre plate assay. […] Duration of compound exposure was 3 days.

| SMILES | IC50 (Table 1, 3 days exposure) [µM] | IC50 (Table 2, 3 days exposure) [µM] |
| --- | --- | --- |
| O=C(O)[C@@H]1CCCCN1Cc1cc2cc3c(cc2c2cc(O)ccc12)OCO3 [Compound 24, N-(2,3-Methylenedioxy-6-hydroxy-phenanthr-9-ylmethyl)-L-2-piperidinecarboxylic acid] | 39.7 | – |
| COc1ccc2c(CN3CCCC[C@H]3C(=O)O)cc3cc(OC)c(OC)cc3c2c1 [Compound 37, N-(2,3,6-Trimethoxyphenanthr-9-ylmethyl)-L-2-piperidinecarboxylic acid] | – | 9.7 |
